Test system: bloodstream forms of Trypanosoma brucei
Assay: Resazurin cell viability assay, EC50 determinations against T. brucei
Type: cell-based, T. b. brucei (strain 427)
Conditions: read-out: EC50 of opioid receptor ligands against T. brucei

C=CCN1CC[C@]23c4c5ccc(O)c4O[C@H]2C(=O)CC[C@@]3(O)[C@H]1C5 [Naloxone]
EC50: > 100 µM
